Values from PubChem BioAssay AID1259308 (NCATS, 2017)
Shown is one part, drawn at random, of about 59,000 deposited reagents. Of all reagents, about 1,510 (2.6%) got an active call. 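Calls use total luciferase alone and ignore viability, so some active siRNAs may act by altering cell number.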 Further read-outs or replicates are left out here. Reagent sequences are not shown.

- Test: 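Candidate targets for better recombinant protein yield in mammalian cells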 (primary screen)
- Cells: human HEK293 embryonic kidney cells stably expressing firefly luciferase (HEK-CMV-Luc2-Hygro)
- Knock-down reagent: single siRNA against human genes, 0.8 pmol siRNA per well
- Time to read-out: 72 h
- Measurement: 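Luciferase light (ONE-Glo) measured on one replicate plate set and viability (CellTiter-Glo) on the other, scaled to a negative control siRNA, with robust z-scores and luciferase per cell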
- Scale: total luciferase, z-score: higher = more reporter protein produced
- Rule for the call: 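An siRNA counts as active if its total luciferase robust z-score exceeds 3; genes with two or more such siRNAs out of three were retested with fresh siRNAs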
- Calls: active = raised luciferase; inactive = no rise

CD274 [SID160739129]: total luciferase, z-score = 0.35; Outcome = inactive
CD274 [SID160739130]: total luciferase, z-score = -0.853; Outcome = inactive
CD274 [SID160739131]: total luciferase, z-score = -0.0449; Outcome = inactive
SH3RF1 [SID160746451]: total luciferase, z-score = -0.42; Outcome = inactive
SH3RF1 [SID160746452]: total luciferase, z-score = 0.288; Outcome = inactive
SH3RF1 [SID160746454]: total luciferase, z-score = 0.799; Outcome = inactive
ADHFE1 [SID160757538]: total luciferase, z-score = -0.831; Outcome = inactive
ADHFE1 [SID160757539]: total luciferase, z-score = 0.16; Outcome = inactive
ADHFE1 [SID160757540]: total luciferase, z-score = -0.54; Outcome = inactive
ZC3H15 [SID160744526]: total luciferase, z-score = 1.14; Outcome = inactive
ZC3H15 [SID160744527]: total luciferase, z-score = -0.0445; Outcome = inactive
ZC3H15 [SID160744528]: total luciferase, z-score = 1.44; Outcome = inactive
WDFY3 [SID160727896]: total luciferase, z-score = -0.0167; Outcome = inactive
WDFY3 [SID160727899]: total luciferase, z-score = -0.88; Outcome = inactive
WDFY3 [SID160727900]: total luciferase, z-score = 0.701; Outcome = inactive
SFXN4 [SID160755722]: total luciferase, z-score = 0.44; Outcome = inactive
SFXN4 [SID160755723]: total luciferase, z-score = -0.643; Outcome = inactive
SFXN4 [SID160755724]: total luciferase, z-score = -0.61; Outcome = inactive
SLC25A20 [SID160735583]: total luciferase, z-score = 0.643; Outcome = inactive
SLC25A20 [SID160735594]: total luciferase, z-score = -0.446; Outcome = inactive
SLC25A20 [SID160735605]: total luciferase, z-score = -0.19; Outcome = inactive
C16orf96 [SID160764597]: total luciferase, z-score = -0.69; Outcome = inactive
C16orf96 [SID160764598]: total luciferase, z-score = -0.284; Outcome = inactive
C16orf96 [SID160764599]: total luciferase, z-score = -0.374; Outcome = inactive
HECTD4 [SID160760643]: total luciferase, z-score = 1.26; Outcome = inactive
HECTD4 [SID160760644]: total luciferase, z-score = -0.781; Outcome = inactive
HECTD4 [SID160760645]: total luciferase, z-score = 2.8; Outcome = inactive
HECTD4 [SID160762915]: total luciferase, z-score = -0.643; Outcome = inactive
HECTD4 [SID160762916]: total luciferase, z-score = 0.533; Outcome = inactive
HECTD4 [SID160762917]: total luciferase, z-score = 0.0135; Outcome = inactive
CDH1 [SID160740320]: total luciferase, z-score = 1.21; Outcome = inactive
CDH1 [SID160740331]: total luciferase, z-score = -0.0394; Outcome = inactive
CDH1 [SID160740342]: total luciferase, z-score = -0.794; Outcome = inactive
